From the supplement of paper PMC10849652
The other results are listed elsewhere or left out.

Chains of the proteins cited; added tags and fusions are not shown. Lines headed by an entry give the natural chain unless they say otherwise; changes in a name come on top.
UniProt O94760: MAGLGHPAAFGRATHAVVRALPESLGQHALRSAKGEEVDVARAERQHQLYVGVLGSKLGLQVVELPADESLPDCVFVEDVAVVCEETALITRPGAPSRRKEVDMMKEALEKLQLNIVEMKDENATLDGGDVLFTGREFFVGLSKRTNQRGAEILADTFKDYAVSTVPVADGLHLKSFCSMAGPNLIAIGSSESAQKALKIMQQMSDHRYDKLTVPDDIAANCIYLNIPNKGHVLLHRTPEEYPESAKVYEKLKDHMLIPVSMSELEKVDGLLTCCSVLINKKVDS
UniProt Q8IVF4: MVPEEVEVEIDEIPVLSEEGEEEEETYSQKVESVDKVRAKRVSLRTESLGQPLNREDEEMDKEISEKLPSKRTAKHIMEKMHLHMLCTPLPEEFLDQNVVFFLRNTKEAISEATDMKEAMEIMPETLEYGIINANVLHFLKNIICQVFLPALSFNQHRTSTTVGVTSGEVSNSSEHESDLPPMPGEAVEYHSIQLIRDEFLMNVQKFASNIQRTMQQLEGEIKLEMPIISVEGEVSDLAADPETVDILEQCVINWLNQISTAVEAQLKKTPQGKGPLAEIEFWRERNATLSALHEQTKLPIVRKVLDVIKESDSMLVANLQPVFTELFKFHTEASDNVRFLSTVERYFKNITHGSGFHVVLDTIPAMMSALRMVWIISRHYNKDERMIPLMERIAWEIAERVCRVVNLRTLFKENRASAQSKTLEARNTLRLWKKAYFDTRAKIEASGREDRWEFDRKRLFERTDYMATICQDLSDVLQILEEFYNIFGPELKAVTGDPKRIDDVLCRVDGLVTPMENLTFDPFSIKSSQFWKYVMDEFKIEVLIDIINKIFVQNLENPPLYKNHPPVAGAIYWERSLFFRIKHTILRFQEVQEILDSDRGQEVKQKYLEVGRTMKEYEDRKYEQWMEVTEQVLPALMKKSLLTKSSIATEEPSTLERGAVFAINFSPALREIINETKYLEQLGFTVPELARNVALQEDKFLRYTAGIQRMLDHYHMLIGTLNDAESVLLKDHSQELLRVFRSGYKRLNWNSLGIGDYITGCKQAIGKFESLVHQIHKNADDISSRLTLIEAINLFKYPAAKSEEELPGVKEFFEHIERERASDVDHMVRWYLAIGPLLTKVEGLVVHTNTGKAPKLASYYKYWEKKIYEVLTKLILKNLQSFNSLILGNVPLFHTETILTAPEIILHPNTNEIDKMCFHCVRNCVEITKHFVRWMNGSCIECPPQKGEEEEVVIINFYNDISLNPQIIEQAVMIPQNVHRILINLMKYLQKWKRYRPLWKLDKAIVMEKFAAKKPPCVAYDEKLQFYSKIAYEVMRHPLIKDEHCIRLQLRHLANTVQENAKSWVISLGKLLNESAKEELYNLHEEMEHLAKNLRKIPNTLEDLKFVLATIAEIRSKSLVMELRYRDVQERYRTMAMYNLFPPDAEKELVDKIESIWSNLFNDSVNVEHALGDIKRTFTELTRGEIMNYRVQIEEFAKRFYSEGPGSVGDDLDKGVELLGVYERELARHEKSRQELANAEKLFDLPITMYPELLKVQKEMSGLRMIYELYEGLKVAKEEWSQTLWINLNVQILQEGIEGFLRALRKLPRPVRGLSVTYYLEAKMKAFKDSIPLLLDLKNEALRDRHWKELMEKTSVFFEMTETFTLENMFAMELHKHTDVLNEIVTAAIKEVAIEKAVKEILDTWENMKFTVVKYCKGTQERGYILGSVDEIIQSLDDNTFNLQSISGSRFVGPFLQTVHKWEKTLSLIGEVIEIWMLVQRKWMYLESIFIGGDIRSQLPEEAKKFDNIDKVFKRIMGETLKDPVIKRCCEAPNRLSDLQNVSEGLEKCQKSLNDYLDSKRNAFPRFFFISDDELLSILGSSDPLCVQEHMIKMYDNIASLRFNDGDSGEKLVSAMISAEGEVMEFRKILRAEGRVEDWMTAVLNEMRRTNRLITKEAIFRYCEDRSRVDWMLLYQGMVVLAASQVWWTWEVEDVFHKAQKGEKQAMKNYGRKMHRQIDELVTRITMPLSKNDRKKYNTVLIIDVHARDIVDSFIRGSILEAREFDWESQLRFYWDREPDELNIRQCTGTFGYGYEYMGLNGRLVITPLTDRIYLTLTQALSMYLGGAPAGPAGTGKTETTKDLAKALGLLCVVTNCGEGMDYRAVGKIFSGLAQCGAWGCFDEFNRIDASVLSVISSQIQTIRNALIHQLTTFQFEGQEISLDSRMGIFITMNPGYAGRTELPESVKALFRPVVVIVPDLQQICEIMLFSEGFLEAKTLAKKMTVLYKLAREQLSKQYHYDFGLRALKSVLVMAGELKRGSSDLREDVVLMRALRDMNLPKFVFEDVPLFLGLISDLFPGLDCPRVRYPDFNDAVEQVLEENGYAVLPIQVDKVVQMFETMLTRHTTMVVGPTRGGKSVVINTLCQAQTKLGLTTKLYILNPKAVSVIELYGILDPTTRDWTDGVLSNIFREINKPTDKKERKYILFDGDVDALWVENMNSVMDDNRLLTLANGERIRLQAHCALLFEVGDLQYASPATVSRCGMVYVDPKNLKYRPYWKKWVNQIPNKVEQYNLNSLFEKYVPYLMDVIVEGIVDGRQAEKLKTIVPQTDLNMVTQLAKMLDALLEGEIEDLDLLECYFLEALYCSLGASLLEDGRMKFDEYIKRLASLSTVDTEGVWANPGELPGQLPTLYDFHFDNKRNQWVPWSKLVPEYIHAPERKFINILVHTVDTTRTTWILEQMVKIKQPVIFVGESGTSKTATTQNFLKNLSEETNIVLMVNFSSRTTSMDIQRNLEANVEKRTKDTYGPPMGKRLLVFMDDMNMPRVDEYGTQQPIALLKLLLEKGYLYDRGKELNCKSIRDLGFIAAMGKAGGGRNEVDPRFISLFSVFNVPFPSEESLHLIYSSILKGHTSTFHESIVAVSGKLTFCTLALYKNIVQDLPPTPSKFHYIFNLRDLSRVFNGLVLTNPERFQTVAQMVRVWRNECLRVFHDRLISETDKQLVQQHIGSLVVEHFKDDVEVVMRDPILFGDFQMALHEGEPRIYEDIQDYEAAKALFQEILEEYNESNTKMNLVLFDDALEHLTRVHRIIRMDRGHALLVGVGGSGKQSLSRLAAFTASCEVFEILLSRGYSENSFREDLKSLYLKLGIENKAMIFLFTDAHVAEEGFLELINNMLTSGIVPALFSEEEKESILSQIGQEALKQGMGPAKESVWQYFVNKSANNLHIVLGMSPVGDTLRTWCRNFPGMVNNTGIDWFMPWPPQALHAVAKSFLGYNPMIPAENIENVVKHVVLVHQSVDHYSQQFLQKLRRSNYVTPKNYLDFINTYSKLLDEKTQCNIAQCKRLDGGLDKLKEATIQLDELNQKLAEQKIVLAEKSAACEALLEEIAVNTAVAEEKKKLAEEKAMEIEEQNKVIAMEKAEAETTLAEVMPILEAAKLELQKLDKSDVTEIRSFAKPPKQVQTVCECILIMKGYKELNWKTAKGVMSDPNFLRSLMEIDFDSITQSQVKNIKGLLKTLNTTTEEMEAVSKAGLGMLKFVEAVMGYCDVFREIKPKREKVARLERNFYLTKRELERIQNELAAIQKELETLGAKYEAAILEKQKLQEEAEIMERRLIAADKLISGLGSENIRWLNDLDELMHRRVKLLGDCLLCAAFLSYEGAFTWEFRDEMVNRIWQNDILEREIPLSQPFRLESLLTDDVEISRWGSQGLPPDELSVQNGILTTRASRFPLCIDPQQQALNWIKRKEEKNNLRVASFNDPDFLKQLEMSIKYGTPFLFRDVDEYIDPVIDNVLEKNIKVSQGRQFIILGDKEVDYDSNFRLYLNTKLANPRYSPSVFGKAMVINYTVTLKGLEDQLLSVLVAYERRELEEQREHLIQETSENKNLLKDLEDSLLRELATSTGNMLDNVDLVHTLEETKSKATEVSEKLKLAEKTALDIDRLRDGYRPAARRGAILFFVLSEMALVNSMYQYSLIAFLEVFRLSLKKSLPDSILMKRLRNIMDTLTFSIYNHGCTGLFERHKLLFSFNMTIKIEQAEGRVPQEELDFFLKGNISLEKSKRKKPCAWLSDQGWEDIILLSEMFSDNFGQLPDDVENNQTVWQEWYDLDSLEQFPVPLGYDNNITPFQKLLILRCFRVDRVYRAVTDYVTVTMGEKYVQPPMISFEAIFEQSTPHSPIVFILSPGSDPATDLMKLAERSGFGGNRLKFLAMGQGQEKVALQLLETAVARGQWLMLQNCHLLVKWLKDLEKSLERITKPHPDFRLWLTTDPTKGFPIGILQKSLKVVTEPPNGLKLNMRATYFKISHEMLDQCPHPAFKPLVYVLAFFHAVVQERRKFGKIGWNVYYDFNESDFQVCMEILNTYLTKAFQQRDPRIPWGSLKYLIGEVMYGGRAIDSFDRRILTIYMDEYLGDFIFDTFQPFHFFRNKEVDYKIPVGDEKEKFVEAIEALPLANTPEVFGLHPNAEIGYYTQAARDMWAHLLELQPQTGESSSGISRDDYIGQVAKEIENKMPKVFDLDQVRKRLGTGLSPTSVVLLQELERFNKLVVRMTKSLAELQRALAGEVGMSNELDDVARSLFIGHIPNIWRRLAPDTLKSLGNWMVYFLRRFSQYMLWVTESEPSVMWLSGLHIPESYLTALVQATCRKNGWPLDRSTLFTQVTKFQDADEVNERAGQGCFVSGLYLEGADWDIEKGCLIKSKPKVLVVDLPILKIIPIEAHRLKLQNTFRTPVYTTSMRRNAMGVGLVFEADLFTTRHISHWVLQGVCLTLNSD
UniProt Q8TCE6, whole entry, looked up: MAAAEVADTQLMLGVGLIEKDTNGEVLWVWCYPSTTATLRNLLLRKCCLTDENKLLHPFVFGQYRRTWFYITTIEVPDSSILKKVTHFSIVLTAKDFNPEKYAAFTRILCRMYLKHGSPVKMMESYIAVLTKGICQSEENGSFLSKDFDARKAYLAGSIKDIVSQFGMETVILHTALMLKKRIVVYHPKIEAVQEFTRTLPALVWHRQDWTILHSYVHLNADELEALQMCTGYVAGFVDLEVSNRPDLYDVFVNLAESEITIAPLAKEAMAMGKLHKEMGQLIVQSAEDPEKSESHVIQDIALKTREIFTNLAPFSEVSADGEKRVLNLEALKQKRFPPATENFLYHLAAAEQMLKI
UniProt Q6ICB0: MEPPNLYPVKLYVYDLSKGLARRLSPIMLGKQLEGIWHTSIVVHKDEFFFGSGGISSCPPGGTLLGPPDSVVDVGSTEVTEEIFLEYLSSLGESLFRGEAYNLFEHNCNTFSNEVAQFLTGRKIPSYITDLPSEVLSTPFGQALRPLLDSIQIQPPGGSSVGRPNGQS
UniProt Q14147: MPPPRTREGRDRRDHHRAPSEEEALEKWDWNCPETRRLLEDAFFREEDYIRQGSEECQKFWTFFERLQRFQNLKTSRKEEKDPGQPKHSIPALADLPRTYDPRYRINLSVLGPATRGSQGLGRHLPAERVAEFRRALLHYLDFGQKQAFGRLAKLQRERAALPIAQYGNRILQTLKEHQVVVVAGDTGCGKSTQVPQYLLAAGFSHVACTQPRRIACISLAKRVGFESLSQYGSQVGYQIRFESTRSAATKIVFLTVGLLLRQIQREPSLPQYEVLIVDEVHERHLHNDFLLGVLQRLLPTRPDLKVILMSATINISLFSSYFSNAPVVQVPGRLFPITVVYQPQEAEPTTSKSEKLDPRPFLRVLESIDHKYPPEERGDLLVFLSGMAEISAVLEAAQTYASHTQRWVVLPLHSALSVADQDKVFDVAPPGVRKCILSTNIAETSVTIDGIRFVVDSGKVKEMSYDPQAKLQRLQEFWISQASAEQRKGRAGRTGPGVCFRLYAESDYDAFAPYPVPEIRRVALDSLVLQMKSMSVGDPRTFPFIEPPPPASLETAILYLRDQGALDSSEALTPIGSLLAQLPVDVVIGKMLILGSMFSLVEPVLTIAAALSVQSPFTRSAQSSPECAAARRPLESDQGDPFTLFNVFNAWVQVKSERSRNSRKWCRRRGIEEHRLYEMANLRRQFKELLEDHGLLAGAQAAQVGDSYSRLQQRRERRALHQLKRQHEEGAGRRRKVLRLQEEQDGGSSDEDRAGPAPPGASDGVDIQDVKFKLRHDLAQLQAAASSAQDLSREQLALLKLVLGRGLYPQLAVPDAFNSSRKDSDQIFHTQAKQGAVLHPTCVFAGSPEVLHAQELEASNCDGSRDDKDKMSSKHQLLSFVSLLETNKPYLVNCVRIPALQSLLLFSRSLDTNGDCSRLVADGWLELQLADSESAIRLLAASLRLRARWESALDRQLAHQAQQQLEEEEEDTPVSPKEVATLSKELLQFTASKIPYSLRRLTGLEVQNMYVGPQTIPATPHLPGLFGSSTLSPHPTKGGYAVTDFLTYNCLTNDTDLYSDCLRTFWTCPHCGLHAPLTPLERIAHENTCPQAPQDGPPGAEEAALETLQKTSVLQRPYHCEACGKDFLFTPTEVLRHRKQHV

Tests used:
Test in all cases: log2 fold change, soluble protein after heating vs DMSO (PISA); higher = thermal stabilisation; K562 cells, 10 uM, 30 min; active = over 0.2 and 3.5 SD of the protein, either way, in both replicates (recomputed)
[1] = compound: CC[C@@H]1C(=O)N(C)c2cnc(Nc3ccc(C(=O)NC4CCN(C)CC4)cc3OC)nc2N1C1CCCC1
Procedure, shortened: (§1)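 Quantification of soluble protein used TMTpro 16plex LC-MS/MS, with channel sums equalised. Samples were the supernatant after 21,000xg for 90 min of pooled aliquots from K562 cells (2×10^6 cells/mL) treated with 10 μM compound for 30 min, heated for 3 min over 48°C-58°C, and extracted in PBS with 0.5% NP-40 at 4°C. Values, from duplicates, describe thermal stability against control samples on a log2 fold-change scale.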

volasertib = compound: CC[C@@H]1C(=O)N(C)c2cnc(Nc3ccc(C(=O)N[C@H]4CC[C@H](N5CCN(CC6CC6)CC5)CC4)cc3OC)nc2N1C(C)C [volasertib]
Procedure, shortened: as §1

[2] = compound: CC[C@H](C)N1C=C(C2=C(C=C(C=C21)C3=CN=C(C=C3)N4CCNCC4)C(=O)NCC5=C(C=C(NC5=O)C)C)C
Procedure, shortened: as §1

epoxomicin = compound: CC[C@H](C)[C@@H](C(=O)N[C@@H]([C@@H](C)O)C(=O)N[C@@H](CC(C)C)C(=O)[C@]1(CO1)C)NC(=O)[C@H]([C@@H](C)CC)N(C)C(=O)C [epoxomicin]
Procedure, shortened: as §1

[3] = compound: CCn1c(C(=O)N(C2CC2)C2CC2)cc2c3c(ncn3C)c(Nc3cc(C)n(C)n3)nc21
Procedure, shortened: as §1

[4] = compound: CCn1cc(-c2ccnc3[nH]c(-c4cccc(CN(C)C)c4)cc23)c(-c2ccc(NC(=O)N(C)C)cc2)n1
Procedure, shortened: as §1

[5] = compound: CN(C)CC(=O)Nc1ccc2[nH]c(=O)c3ccccc3c2c1
Procedure, shortened: as §1

rosiglitazone = compound: CN(CCOC1=CC=C(C=C1)C[C@H]2C(=O)NC(=O)S2)C3=CC=CC=N3 (racemic) [rosiglitazone]
Procedure, shortened: as §1

[6] = compound: CN1C2=C(C3=C1C(=O)N(N=C3)CC4=CC(=CC=C4)N)SC(=C2)S(=O)C
Procedure, shortened: as §1

[7] = compound: CN1CCC(CNc2ccc3ncc(-c4cccc(OC(F)(F)F)c4)n3n2)CC1
Procedure, shortened: as §1

saracatinib = compound: CN1CCN(CCOc2cc(OC3CCOCC3)c3c(Nc4c(Cl)ccc5c4OCO5)ncnc3c2)CC1 [saracatinib]
Procedure, shortened: as §1

sotrastaurin = compound: CN1CCN(c2nc(C3=C(c4c[nH]c5ccccc45)C(=O)NC3=O)c3ccccc3n2)CC1 [sotrastaurin]
Procedure, shortened: as §1

alvocidib = compound: CN1CC[C@H](c2c(O)cc(O)c3c(=O)cc(-c4ccccc4Cl)oc23)[C@H](O)C1 [alvocidib]
Procedure, shortened: as §1

Tubastatin A = compound: CN1CCc2c(c3ccccc3n2Cc2ccc(C(=O)NO)cc2)C1 [Tubastatin A]
Procedure, shortened: as §1

[8] = compound: CNC(=O)C1=CC=CC=C1NC2=NC(=NC=C2Cl)NC3=C(C=C(C=C3)N4CCOCC4)OC
Procedure, shortened: as §1

defactinib = compound: CNC(=O)c1ccc(Nc2ncc(C(F)(F)F)c(NCc3nccnc3N(C)S(C)(=O)=O)n2)cc1 [defactinib]
Procedure, shortened: as §1

rucaparib = compound: CNCc1ccc(-c2[nH]c3cc(F)cc4c3c2CCNC4=O)cc1 [rucaparib]
Procedure, shortened: as §1

[9] = compound: CNc1nc(-c2ccc3c(N)n[nH]c3c2)cc(N2C[C@@H](C(=O)NC3CCCCC3)CC[C@H]2C)n1
Procedure, shortened: as §1

encorafenib = compound: COC(=O)N[C@@H](C)CNc1nccc(-c2cn(C(C)C)nc2-c2cc(Cl)cc(NS(C)(=O)=O)c2F)n1 [encorafenib]
Procedure, shortened: as §1

[10] = compound: COC(=O)[C@H](CCSC)NC(=O)C1=C(C=C(C=C1)NC[C@H](CS)N)C2=CC=CC=C2
Procedure, shortened: as §1

Measured: log2 fold change

DHX30 isoform 2 (UniProt Q7L2E3)
inactive: [1] 0.019 | volasertib 0.057 | [2] 0.004 | epoxomicin -0.189 | [3] 0.03 | [4] 0.118 | [5] -0.063 | rosiglitazone -0.093 | [6] 0.243 | [7] -0.035 | saracatinib -0.091 | sotrastaurin -0.068 | alvocidib 0.091 | Tubastatin A 0.058 | [8] -0.048 | defactinib 0.123 | rucaparib 0.344 | [9] 0.052 | encorafenib 0.008 | [10] -0.034

DIP2A (UniProt Q14689)
inactive: [1] -0.065 | volasertib 0.026 | [2] -0.037 | epoxomicin -0.017 | [4] -0.063 | [5] -0.041 | [6] -0.045 | [7] 0.057 | saracatinib 0.082 | sotrastaurin 0.054 | Tubastatin A -0.094 | [8] 0.034 | defactinib -0.059 | rucaparib 0.1 | [9] -0.009 | encorafenib 0 | [10] 0.077

DDAH1 (UniProt O94760)
inactive: [1] 0.075 | volasertib 0.091 | [2] 0.009 | [3] -0.007 | [4] -0.035 | [5] 0.022 | rosiglitazone -0.039 | [6] -0.041 | [7] 0.035 | saracatinib -0.041 | alvocidib -0.012 | Tubastatin A -0.073 | [8] -0.027 | defactinib 0.002 | rucaparib -0.134 | [9] 0.003 | encorafenib 0.024 | [10] 0.009

DDX4 (UniProt Q9NQI0)
inactive: [1] 0.139 | volasertib -0.006 | [2] 0.067 | epoxomicin -0.113 | [4] 0.047 | [5] -0.414 | [6] 0.025 | [7] -0.844 | saracatinib -0.342 | sotrastaurin 0.209 | Tubastatin A 0.102 | [8] -0.097 | defactinib 0.11 | rucaparib 0.543 | [9] -0.095 | encorafenib 0.121 | [10] 0.067

DERPC (UniProt P0CG12)
active: [6] 0.519
inactive: [1] 0.127 | [2] -0.051 | [4] 0.197 | [5] 0.053 | [7] 0.025 | saracatinib -0.168 | [8] 0.08 | defactinib -0.153 | rucaparib -0.001 | [9] -0.071 | encorafenib -0.109 | [10] 0.063

DHCR7 (UniProt Q9UBM7)
active: volasertib 1.68 | [4] 0.522
inactive: [1] 0.409 | [2] 0.054 | epoxomicin 0.154 | [5] 0.085 | [6] -0.055 | [7] 0.203 | saracatinib 0.412 | sotrastaurin -0.033 | Tubastatin A 0.087 | [8] -0.181 | defactinib -0.01 | rucaparib 0.143 | [9] 0.087 | encorafenib 0.084 | [10] -0.048

DEGS1 (UniProt O15121)
active: Tubastatin A -0.521
inactive: [1] 0.061 | volasertib -0.02 | [2] 0.012 | epoxomicin -0.037 | [4] -0.168 | [5] 0.068 | [6] -0.1 | [7] 0.019 | saracatinib 0.088 | sotrastaurin -0.022 | [8] 0.046 | defactinib -0.18 | rucaparib 0.002 | [9] 0.029 | encorafenib 0.002 | [10] 0.106

DNAH10 (UniProt Q8IVF4)
inactive: [1] 0.066 | [2] -0.146 | epoxomicin 0.072 | [4] -0.183 | [5] -0.008 | [6] 0 | [7] 0.006 | saracatinib -0.067 | sotrastaurin -0.06 | Tubastatin A 0.191 | [8] -0.157 | defactinib 0.004 | rucaparib -0.044 | [9] 0.062 | encorafenib -0.06 | [10] -0.013

DESI2 (UniProt Q9BSY9)
inactive: [1] 0.017 | volasertib -0.156 | [2] 0.013 | [3] -0.148 | rosiglitazone 0.092 | sotrastaurin -0.051 | Tubastatin A -0.038 | [8] -0.057 | rucaparib -0.129 | encorafenib 0.026

DMKN (UniProt Q6E0U4)
inactive: [1] 0.691 | volasertib 0.363 | [2] 0.092 | [3] 0.227 | [5] 0.172 | rosiglitazone 0.085 | Tubastatin A -0.377 | [8] 0.242 | defactinib -0.117 | rucaparib 0.225 | encorafenib -0.313 | [10] -0.012

DMXL1 (UniProt Q9Y485)
active: [7] -0.276
inactive: [1] -0.119 | volasertib -0.241 | [2] 0.029 | epoxomicin 0.026 | [4] 0.072 | [5] 0.012 | [6] 0.01 | saracatinib 0.014 | sotrastaurin 0.001 | Tubastatin A -0.011 | [8] -0.065 | defactinib -0.035 | rucaparib 0.076 | [9] -0.017 | encorafenib 0.043 | [10] -0.047

DLD (UniProt P09622)
inactive: [1] 0.043 | volasertib 0.143 | [2] -0.028 | epoxomicin -0.015 | [4] -0.007 | [5] -0.012 | [6] -0.035 | [7] -0.118 | saracatinib 0.055 | sotrastaurin 0.015 | Tubastatin A -0.029 | [8] 0.008 | defactinib 0.01 | rucaparib -0.041 | [9] -0.023 | encorafenib -0.011 | [10] 0.047

DHX16 (UniProt O60231)
inactive: [1] -0.032 | volasertib -0.158 | [2] 0.032 | epoxomicin 0.051 | [4] -0.054 | [5] -0.025 | [6] -0.033 | [7] -0.012 | saracatinib 0.024 | sotrastaurin -0.037 | Tubastatin A -0.001 | [8] -0.042 | defactinib -0.035 | rucaparib -0.027 | [9] 0.028 | encorafenib 0.019 | [10] -0.013

DENND10 (UniProt Q8TCE6)
inactive: [1] -0.041 | volasertib -0.241 | [2] 0.121 | epoxomicin -0.041 | [5] 0.076 | [6] -0.031 | saracatinib 0.035 | sotrastaurin 0.015 | Tubastatin A 0.007 | [8] -0.039 | defactinib -0.058 | rucaparib -0.065 | [9] -0.035 | encorafenib 0.008 | [10] -0.048

DHX36 (UniProt Q9H2U1)
inactive: [1] 0.11 | volasertib 0.059 | [2] 0.002 | epoxomicin -0.032 | [4] 0.032 | [5] -0.032 | [6] 0.086 | [7] -0.027 | saracatinib -0.014 | sotrastaurin 0.021 | Tubastatin A 0.048 | [8] -0.041 | defactinib 0.171 | rucaparib 0.187 | [9] 0.03 | encorafenib 0.095 | [10] 0.011

DDB1 isoform 2 (UniProt Q16531)
inactive: [1] 0.141 | epoxomicin -0.287 | [4] 0.235 | [7] -0.041 | sotrastaurin 0.053 | rucaparib -0.067 | encorafenib -0.041

DESI1 (UniProt Q6ICB0)
inactive: [1] -0.078 | volasertib -0.136 | [3] 0.1 | [5] -0.15 | rosiglitazone -0.006 | [6] -0.029 | saracatinib 0.012 | alvocidib 0.029 | Tubastatin A 0.061 | [8] 0.068 | defactinib 0.195 | rucaparib -0.167 | [9] 0.042 | encorafenib 0.118 | [10] 0.381

Pulled one by one from above (2):
DENND10 (UniProt Q8TCE6)
inactive: [1] -0.041 | volasertib -0.241 | [2] 0.121 | epoxomicin -0.041 | [5] 0.076 | [6] -0.031 | saracatinib 0.035 | sotrastaurin 0.015 | Tubastatin A 0.007 | [8] -0.039 | defactinib -0.058 | rucaparib -0.065 | [9] -0.035 | encorafenib 0.008 | [10] -0.048

DNAH10 (UniProt Q8IVF4)
inactive: [1] 0.066 | [2] -0.146 | epoxomicin 0.072 | [4] -0.183 | [5] -0.008 | [6] 0 | [7] 0.006 | saracatinib -0.067 | sotrastaurin -0.06 | Tubastatin A 0.191 | [8] -0.157 | defactinib 0.004 | rucaparib -0.044 | [9] 0.062 | encorafenib -0.06 | [10] -0.013

Going on with the list:

DHRS1 (UniProt Q96LJ7)
inactive: [1] 0.164 | volasertib 0.302 | [2] 0.039 | epoxomicin -0.062 | [4] -0.098 | [5] -0.048 | [6] -0.051 | [7] 0.065 | saracatinib -0.074 | sotrastaurin 0.153 | Tubastatin A 0.022 | [8] 0.375 | defactinib -0.007 | rucaparib 0.031 | [9] 0.392 | encorafenib -0.116 | [10] -0.116

DHFR (UniProt P00374)
active: [7] 1.64 | sotrastaurin 1.66 | Tubastatin A 1.77
inactive: [1] 0.002 | volasertib -0.11 | [2] 0.088 | epoxomicin -0.013 | [4] -0.077 | [5] 0.091 | [6] 0.113 | saracatinib -0.193 | [8] -0.115 | defactinib -0.109 | rucaparib 0.39 | [9] 0.036 | encorafenib 0.109 | [10] -0.059

DHX34 (UniProt Q14147)
inactive: [1] 0.088 | epoxomicin 0.208 | [3] -0.224 | [6] 0.061 | saracatinib -0.12 | Tubastatin A -0.105 | [8] -0.216 | rucaparib -0.076 | [9] -0.064 | encorafenib -0.004
